Source: US4594190A, “Quaternary salts of dibenzo[1,4]diazepinones, pyrido-[1,4]benzodiazepinones, pyrido[1,5]benzodiazepinones with antiulcer, antisecretory, spasmolytic and antimusarinic activities” (priority 1983, dated 1986)
The name of at least one read-out is uncertain.

Tested on: muscarinic receptor
Assay: Interaction with muscarinic receptor: displacement of 3H-QNB bound to receptors of rat cerebral cortex
Format: binding

Structure (SMILES): C[N+]1(C)CC[N+](C)(CC(=O)N2c3ccccc3C(=O)Nc3cccnc32)CC1 [Compound 2, 11-[2-(4-Methylpiperazin-1-yl)acetyl]-5,11-dihydro-6H-pyrido[2,3-b][1,4]benzodiazepin-6-one N^1,4 bisiodomethylate]
- Interaction with muscarinic receptor (10^-5): 34.0
- Interaction with muscarinic receptor (10^-6): 1.0
